Results are given in words; binding and its absence hold for the method and conditions named. Binding seen in cells or lysates may run through a third protein. A yes stands for co-enrichment or nearness to the bait. Other partners may have been found.
Molecular target: T1, peroxiredoxin 6 (human) (UniProt P30041)
T1 sequence: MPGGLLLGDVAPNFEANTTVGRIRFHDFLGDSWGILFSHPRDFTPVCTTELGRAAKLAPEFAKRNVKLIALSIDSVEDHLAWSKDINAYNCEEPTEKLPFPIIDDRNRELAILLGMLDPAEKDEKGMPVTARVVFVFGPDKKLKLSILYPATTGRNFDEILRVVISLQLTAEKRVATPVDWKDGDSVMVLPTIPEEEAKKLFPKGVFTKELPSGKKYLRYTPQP
Experiment: affinity purification with mass spectrometry; PRDX6-mediated co-immunoprecipitation followed by MS analysis

By UniProt entry, the sequences of proteins in these tests, tags left out.
UniProt P11142: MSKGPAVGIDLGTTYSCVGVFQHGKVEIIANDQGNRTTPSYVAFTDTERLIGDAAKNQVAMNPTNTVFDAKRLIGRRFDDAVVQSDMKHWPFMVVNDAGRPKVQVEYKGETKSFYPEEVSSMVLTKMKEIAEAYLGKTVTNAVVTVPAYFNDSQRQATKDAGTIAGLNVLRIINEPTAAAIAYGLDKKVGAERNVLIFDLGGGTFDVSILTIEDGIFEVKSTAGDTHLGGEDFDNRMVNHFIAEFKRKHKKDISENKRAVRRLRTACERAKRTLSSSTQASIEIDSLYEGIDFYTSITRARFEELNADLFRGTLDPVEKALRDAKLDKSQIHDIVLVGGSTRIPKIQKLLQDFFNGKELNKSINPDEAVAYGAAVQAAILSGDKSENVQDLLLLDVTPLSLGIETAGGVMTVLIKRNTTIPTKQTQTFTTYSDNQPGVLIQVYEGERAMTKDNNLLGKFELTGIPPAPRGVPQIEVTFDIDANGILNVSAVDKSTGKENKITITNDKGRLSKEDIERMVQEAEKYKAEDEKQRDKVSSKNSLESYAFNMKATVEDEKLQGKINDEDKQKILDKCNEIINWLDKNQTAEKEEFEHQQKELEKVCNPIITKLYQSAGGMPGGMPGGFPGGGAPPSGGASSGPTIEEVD

binding: binds
Substance: HSPA8 (from UniProt P11142 1-646)
